No constants are given. Whether binding was seen depends on the method and setting. Binding seen in cells or lysates may run through a third protein. Some entries that bind do so weakly or less than the wild type. For some assays here: Sequences can lack the tags named with a protein.
Key:
[1] = target: T1, TNFR3-V5 with the extracellular domain deleted (human) (UniProt P36941); test: co-IP; anti-V5-tag antibody beads with 100 µg lysate of co-transfected HEK293 cells, 2 h at 4 °C, washed thrice with TBS; immunoblot for OSM and V5; cells untreated or exposed to methylmercuric chloride for 6 h
T1 sequence: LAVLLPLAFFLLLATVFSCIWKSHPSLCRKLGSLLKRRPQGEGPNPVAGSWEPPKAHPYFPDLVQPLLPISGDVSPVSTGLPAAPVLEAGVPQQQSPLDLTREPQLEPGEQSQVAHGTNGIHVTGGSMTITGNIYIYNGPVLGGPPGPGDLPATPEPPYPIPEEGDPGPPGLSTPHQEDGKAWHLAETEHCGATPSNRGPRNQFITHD

[2] = target: tumor necrosis factor receptor 3 with V5 tag (human) (UniProt P36941); test: as above

binding [1]: no binding
B1: oncostatin M (ligand, UniProt P13725 26-221)
chain: AAIGSCSKEYRVLLGQLQKQTDLMQDTSRLLDPYIRIQGLDVPKLREHCRERPGAFPSEETLRGLGRRGFLQTLNATLGCVLHRLADLEQRLPKAQDLERSGLNIEDLEKLQMARPNILGLRNNIYCMAQLLDNSDTAEPTKAGRGASQPPTPTPASDAFQRKLEGCRFLHGYHRFMHSVGRVFSKWGESPNRSRR
binding [2]: binds
